Results reported in PubChem BioAssay AID2685 (National Center for Advancing Translational Sciences (NCATS), 2010).
The list shows a part of the results. The main result of the screen is listed elsewhere. These columns were measured beside it and carry no call. Most of these compounds were active or inconclusive in the main read-out, so they are no random draw. Potencies come from curve fits of mixed quality, noted in brackets.

Assay: qHTS Assay for Lipid Storage Modulators in Drosophila S3 Cells;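 as to cell number change: cells counted by Cell Tracker Red CMTPX staining in the red channel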
Settings: BODIPY lipid droplet fluorescence, 18-24 h; for cell number change: measured here: cell count max response, cells fed with added oleic acid
Outline: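 Drosophila S3 cells loaded with oleic acid (400 uM, as added) and compounds at several concentrations; lipid droplets imaged by 488-nm laser-scanning cytometry, 500–530 nm intensity and object ratio to cell channel. Percent activity normalized to 20 uM Triacsin C.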

[1] = measured here: lipid fluorescence (Fed channel) AC50, cells fed with added oleic acid
[2] = measured here: cell number channel AC50, cells fed with added oleic acid

SMILES | cell number change [%] | AC50 [1] | AC50 [2]
CCOC1=C/C(=C/c2c(N)n3nc(-c4ccccc4)sc3nc2=O)C=CC1=O | -20.1 |  | 
COc1ccc2cc1Oc1ccc(cc1)C[C@H]1c3cc(c(OC)cc3CCN1C)Oc1c(OC)c(OC)cc3c1[C@@H](C2)N(C)CC3 | 19.2 | 16.4 µM [rising, partial curve, poor fit] | 
CCOc1ccc(NC(=O)c2cc(=O)[nH]c3ccccc23)cc1 | -20.1 |  | 
CCOc1ccc(NC(=O)CC(NC(C)=O)c2ccccc2)cc1S(=O)(=O)N1CCCC1 (stereo unspecified) | -7.89 |  | 6.51 µM [falling, single point]
O=C(Nc1ccc(F)cc1)c1ccc(=O)[nH]n1 | -32.8 |  | 0.116 µM [falling, full curve, poor fit]
Cc1ccc(CNS(=O)(=O)c2ccc(Br)s2)cc1 | -8.11 | 2.31 µM [rising, partial curve, poor fit] | 
COc1cc(CC(=O)OCC(=O)N2CCCCC2C)cc(OC)c1OC (stereo unspecified) | 10.8 | 6.51 µM [rising, single point] | 
COc1ccccc1N1CCN(CC(=O)Nc2ccc(S(=O)(=O)N3CCCCCC3)cc2)CC1 | -11.7 | 29.1 µM [falling, single point] | 
Nc1ccc(S(=O)(=O)NC(Cc2ccccc2)C(=O)O)cc1 (stereo unspecified) | -3.87 | 6.51 µM [rising, single point] | 
CCN(C(=O)CSc1nnc(-c2ccc(Cl)cc2)n1C)C1CCS(=O)(=O)C1 (stereo unspecified) | -22.5 | 0.92 µM [falling, full curve, poor fit] | 0.461 µM [falling, single point]
CCn1cc(C(=O)NCCc2ccc(Cl)cc2)c(=O)c2cc(S(=O)(=O)N(C)C)ccc21 | -15.3 | 0.116 µM [falling, full curve, poor fit] | 
CC1=Nn2c(nnc2-c2n[nH]c3c2CCC3)SC1 | -3.97 | 3.26 µM [rising, partial curve] | 2.06 µM [rising, partial curve]
Cc1cccc(C(=O)N[C@H](C(=O)NCCc2ccc(S(N)(=O)=O)cc2)C(C)C)c1 | 15.4 |  | 
CC(=O)N1CCc2c(sc3c2c(=O)n(-c2ccccc2)c(=O)n3Cc2ccccc2Cl)C1 | 18.1 | 6.51 µM [rising, single point] | 
O=C(Cc1cccs1)NNC(=O)c1ccccc1Cl | -27.6 | 4.11 µM [rising, single point] | 
Cn1c(CNC(=O)c2ccc3c(c2)OCO3)nnc1SCC(=O)Nc1ccc(F)cc1F | -3.97 |  | 
COc1ccc(NS(=O)(=O)c2cc(-c3nnnn3C)ccc2OC)cc1 |  |  | 0.0206 µM [falling, full curve, poor fit]
O=C(COc1ccc(S(=O)(=O)N2CCCC2)cc1)NCc1cccnc1 | -11.8 |  | 
CC(/C=N/NC(=O)CSc1nc2ccccc2n1C)=C\c1ccco1 |  |  | 1.03 µM [rising, partial curve]
CCN(c1cccc(C)c1)S(=O)(=O)c1ccc2c(c1)CCCN2C(C)=O | 6.85 |  | 

SMILES | cell number change [%] | AC50 [1] | AC50 [2]
COCCCNC(=O)c1ccc(Cn2c(=O)c3ccccc3n(Cc3ccc(C)cc3)c2=O)cc1 |  | 0.58 µM [rising, single point] | 
c1ccc2oc(SCc3cn4ccsc4n3)nc2c1 | -6.83 |  | 
CCN1C(=O)[C@@H]2[C@@H](c3ccc(SC4CCCCC4)cc3)N3CCCC[C@@]3(C(=O)OC)[C@@H]2C1=O | -0.528 |  | 4.11 µM [falling, single point]
CCNC(=S)N1CCN(CCNC2=CC(=O)CC(C)(C)C2)CC1 | -48.3 | 23.1 µM [falling, single point] | 5.8 µM [falling, full curve]
COc1cccc(NC(=S)N2CCC(c3ccc(C)cc3)C2)c1 (stereo unspecified) | 23 | 0.731 µM [falling, full curve] | 
Cc1ccc(C)c(N2CCN(C(=S)NC3CCCCC3)CC2)c1 |  |  | 0.082 µM [rising, full curve, poor fit]
Cc1ccc(NC(=O)CN2CCN(S(=O)(=O)c3ccc(F)cc3)CC2)cc1C | 4.38 | 0.92 µM [rising, full curve, poor fit] | 
COc1ccccc1N(CC(=O)NC1CCCC1)S(=O)(=O)c1cccc(C(F)(F)F)c1 | -17.5 | 6.51 µM [rising, single point] | 
Cc1ccc(-c2csc3nnc(SCC(=O)NCc4ccc5c(c4)OCO5)n23)cc1 |  | 1.84 µM [rising, full curve] | 2.91 µM [rising, partial curve]
CCOc1ccc(Oc2ccccc2NC(=O)C2=COCCO2)cc1 |  |  | 6.51 µM [rising, single point]
Cc1ccc(S(=O)(=O)CCC(=O)NCCN2C(=O)S/C(=C\c3ccccc3)C2=O)cc1 | -15.3 | 20.6 µM [falling, single point] | 
COC(=O)Cc1c(O)ccn(Cc2ccc(F)cc2)c1=O | -7.68 | 9.2 µM [rising, partial curve] | 
Cc1ccc(C(=O)OCC(=O)NC(=O)c2cccn2C)cc1 | -28.6 | 3.66 µM [falling, full curve] | 3.66 µM [falling, full curve, poor fit]
O=C(Cc1cccs1)NCCc1ccc(Cl)cc1 | -17.3 | 1.46 µM [falling, partial curve] | 
CCC(=O)Nc1c2c(nn1-c1ccc(OC)cc1)CSC2 | -12.2 | 7.31 µM [rising, partial curve, poor fit] | 
Cc1ccc(N(CC2CO2)S(=O)(=O)c2ccccc2[N+](=O)[O-])cc1 (stereo unspecified) | -25.6 |  | 
COc1cc(OC)cc(C(=O)N[C@H](C(=O)Nc2nc(-c3ccc(F)c(F)c3)cs2)C(C)C)c1 | -43.3 | 16.4 µM [falling, single point] | 32.6 µM [falling, single point]
N#CCSc1nnc(-c2sc3ccccc3c2Cl)o1 | 13.2 | 2.06 µM [rising, full curve] | 
CC(=O)Nc1ccc2nsnc2c1 | -17.8 |  | 
Clc1ccc(OCCNCCc2ccccc2)cc1 | 29.9 | 29.1 µM [falling, single point] | 

Quoted at random: two entries already listed.
SMILES | cell number change [%] | AC50 [1] | AC50 [2]
CCN1C(=O)[C@@H]2[C@@H](c3ccc(SC4CCCCC4)cc3)N3CCCC[C@@]3(C(=O)OC)[C@@H]2C1=O | -0.528 |  | 4.11 µM [falling, single point]
CC(=O)Nc1ccc2nsnc2c1 | -17.8 |  | 
